# The other results are listed elsewhere or left out.
# Protein sequences, listed by entry. Tags and fused reporters are not part of them. Lines headed by an entry give the natural chain unless they say otherwise; changes in a name come on top.
# UniProt Q56NI9: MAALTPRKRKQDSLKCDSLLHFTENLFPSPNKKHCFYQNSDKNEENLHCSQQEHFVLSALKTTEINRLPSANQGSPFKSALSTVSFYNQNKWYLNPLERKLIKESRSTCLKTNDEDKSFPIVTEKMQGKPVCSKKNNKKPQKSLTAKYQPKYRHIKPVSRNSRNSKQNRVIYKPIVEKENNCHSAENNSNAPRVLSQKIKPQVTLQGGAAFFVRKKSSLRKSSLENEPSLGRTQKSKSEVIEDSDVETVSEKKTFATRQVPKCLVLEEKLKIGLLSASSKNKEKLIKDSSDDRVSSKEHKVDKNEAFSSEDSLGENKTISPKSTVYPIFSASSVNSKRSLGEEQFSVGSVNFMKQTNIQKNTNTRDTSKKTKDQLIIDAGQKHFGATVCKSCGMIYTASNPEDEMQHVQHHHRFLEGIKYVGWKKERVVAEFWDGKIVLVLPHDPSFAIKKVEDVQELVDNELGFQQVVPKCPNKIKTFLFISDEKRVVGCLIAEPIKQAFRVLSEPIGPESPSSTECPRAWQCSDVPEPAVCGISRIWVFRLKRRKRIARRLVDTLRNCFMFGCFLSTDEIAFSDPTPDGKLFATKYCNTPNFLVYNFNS
# UniProt Q96RI0: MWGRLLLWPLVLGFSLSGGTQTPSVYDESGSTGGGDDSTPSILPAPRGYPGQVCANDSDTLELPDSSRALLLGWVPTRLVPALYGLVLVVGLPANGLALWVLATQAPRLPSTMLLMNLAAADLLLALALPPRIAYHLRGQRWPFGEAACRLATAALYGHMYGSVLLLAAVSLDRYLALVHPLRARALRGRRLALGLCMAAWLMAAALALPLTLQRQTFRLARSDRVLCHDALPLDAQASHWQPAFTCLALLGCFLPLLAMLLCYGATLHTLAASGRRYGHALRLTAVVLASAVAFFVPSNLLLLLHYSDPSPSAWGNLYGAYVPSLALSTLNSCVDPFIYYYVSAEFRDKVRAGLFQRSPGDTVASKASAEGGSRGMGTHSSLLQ
# UniProt Q8N128: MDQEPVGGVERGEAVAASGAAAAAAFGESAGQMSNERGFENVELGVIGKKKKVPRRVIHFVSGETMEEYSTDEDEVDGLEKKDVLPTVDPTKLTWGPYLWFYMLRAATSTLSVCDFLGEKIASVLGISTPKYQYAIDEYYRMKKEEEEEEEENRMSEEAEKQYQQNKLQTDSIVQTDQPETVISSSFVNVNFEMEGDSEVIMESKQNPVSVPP
# UniProt P41212: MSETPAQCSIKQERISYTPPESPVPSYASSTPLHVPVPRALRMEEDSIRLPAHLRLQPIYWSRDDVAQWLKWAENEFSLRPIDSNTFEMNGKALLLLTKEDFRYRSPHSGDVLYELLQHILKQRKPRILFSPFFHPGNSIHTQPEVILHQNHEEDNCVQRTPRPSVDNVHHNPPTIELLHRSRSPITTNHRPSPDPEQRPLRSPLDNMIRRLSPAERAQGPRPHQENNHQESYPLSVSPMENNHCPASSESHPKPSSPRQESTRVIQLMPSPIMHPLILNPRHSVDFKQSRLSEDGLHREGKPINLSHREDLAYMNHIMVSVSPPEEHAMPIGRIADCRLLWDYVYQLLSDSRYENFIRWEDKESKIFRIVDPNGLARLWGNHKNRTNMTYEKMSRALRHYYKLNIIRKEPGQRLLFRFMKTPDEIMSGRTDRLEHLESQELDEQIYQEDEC
# UniProt Q9NQT5, whole entry, looked up: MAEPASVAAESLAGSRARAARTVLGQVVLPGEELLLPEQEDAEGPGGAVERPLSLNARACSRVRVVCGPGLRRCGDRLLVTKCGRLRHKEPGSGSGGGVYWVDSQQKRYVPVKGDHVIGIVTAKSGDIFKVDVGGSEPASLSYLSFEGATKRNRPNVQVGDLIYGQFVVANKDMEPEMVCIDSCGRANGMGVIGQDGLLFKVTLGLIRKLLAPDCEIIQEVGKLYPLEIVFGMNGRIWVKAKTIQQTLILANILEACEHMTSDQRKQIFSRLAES
# UniProt P43268: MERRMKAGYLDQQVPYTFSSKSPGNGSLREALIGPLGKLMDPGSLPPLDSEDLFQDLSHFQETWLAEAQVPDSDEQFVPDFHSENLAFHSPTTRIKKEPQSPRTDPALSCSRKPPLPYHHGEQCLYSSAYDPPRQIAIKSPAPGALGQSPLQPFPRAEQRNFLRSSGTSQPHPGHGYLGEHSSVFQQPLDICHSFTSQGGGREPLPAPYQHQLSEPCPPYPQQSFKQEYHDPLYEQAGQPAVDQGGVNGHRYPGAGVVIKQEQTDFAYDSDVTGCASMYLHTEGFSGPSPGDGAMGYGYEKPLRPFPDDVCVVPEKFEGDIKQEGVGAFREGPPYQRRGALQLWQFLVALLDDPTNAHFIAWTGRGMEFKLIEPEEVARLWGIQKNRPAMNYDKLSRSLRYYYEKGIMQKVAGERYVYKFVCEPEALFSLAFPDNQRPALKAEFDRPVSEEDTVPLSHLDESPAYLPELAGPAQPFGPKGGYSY
# UniProt P16930: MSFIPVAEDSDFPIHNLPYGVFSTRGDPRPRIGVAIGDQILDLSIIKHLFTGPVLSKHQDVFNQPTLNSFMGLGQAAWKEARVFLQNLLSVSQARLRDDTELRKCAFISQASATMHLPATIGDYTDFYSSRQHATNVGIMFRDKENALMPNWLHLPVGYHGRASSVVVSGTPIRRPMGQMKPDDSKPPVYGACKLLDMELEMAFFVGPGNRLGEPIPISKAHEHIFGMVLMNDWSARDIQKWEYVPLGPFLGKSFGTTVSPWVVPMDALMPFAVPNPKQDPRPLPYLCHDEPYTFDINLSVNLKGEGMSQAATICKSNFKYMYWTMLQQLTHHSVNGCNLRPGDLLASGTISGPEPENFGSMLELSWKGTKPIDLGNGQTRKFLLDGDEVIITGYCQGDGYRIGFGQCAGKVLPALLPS
# UniProt Q5HYJ3: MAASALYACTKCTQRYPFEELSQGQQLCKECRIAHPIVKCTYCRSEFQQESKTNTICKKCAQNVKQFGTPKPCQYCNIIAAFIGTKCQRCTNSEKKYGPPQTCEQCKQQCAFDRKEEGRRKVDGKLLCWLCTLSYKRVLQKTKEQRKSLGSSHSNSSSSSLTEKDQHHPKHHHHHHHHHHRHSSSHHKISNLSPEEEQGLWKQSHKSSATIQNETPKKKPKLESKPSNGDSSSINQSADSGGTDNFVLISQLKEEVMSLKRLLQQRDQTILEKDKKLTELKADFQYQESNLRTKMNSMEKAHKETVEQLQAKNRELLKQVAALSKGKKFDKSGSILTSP
# UniProt Q14153: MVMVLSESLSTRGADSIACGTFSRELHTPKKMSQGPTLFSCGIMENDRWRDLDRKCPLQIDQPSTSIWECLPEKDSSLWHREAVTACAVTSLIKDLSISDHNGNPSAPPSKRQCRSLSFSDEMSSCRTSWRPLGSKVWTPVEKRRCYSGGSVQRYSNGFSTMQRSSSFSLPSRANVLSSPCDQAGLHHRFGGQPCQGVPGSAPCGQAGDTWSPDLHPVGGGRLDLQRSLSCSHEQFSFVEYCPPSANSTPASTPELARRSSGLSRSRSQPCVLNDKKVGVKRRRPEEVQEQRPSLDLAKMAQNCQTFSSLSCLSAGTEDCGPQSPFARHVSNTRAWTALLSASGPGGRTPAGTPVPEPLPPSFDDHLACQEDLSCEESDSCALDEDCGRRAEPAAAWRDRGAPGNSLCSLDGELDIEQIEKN
# UniProt Q6P1L5: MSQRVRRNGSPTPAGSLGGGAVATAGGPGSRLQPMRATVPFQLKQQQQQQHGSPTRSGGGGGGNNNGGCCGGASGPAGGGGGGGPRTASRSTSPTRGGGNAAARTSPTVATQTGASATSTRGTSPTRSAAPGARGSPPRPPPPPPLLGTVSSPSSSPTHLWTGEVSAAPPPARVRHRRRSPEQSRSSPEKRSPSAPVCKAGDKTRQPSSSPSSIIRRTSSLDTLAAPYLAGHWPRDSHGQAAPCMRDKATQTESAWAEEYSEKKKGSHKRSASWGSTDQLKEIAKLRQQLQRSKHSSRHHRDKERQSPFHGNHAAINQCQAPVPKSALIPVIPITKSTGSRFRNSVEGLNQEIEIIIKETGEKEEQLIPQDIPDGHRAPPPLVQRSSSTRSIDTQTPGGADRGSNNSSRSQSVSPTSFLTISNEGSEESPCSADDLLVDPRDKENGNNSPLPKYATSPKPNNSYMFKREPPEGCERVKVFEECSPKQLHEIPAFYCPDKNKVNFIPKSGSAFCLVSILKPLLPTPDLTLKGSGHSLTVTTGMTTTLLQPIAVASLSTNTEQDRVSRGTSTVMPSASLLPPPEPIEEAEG
# UniProt Q7Z309: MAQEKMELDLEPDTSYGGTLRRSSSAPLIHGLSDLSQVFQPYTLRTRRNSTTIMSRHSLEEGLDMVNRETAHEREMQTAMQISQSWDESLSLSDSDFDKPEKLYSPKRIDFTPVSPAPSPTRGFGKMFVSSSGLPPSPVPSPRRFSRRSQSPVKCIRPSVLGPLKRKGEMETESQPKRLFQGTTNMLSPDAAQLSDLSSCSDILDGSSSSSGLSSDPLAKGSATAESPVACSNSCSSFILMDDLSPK
# UniProt Q8IXS8: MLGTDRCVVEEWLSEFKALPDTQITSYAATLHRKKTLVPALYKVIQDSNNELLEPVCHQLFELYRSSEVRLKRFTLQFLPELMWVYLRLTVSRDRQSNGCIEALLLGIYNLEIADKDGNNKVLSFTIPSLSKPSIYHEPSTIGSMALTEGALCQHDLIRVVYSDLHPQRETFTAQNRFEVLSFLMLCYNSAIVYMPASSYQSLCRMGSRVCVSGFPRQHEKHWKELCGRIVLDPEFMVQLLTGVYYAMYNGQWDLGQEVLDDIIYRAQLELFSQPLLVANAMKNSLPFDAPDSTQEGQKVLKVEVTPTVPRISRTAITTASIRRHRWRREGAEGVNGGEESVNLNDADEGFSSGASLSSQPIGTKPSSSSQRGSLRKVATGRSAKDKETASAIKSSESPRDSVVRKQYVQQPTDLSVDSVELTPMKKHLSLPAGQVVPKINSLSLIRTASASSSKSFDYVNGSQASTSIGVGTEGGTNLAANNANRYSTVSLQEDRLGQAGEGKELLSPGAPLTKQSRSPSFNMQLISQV
# UniProt Q8IYI6: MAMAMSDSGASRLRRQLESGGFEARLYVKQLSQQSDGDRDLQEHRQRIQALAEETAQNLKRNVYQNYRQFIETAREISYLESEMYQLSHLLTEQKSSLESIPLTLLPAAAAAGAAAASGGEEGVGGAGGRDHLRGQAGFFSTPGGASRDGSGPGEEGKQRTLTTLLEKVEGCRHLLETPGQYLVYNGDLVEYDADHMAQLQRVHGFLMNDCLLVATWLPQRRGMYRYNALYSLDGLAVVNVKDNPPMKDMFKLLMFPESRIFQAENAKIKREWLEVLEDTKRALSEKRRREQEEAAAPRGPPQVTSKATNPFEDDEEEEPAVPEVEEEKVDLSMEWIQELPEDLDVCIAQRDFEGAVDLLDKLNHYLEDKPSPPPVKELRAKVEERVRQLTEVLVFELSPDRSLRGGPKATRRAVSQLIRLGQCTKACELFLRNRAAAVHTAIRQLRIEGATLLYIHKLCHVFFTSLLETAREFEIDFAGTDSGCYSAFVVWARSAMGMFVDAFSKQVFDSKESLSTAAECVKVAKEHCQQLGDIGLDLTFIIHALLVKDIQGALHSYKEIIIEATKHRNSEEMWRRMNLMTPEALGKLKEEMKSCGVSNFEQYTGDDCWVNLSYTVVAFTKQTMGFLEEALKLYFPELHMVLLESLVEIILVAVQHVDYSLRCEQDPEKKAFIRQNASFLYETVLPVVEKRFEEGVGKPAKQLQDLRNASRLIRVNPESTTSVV
# UniProt Q96ND0: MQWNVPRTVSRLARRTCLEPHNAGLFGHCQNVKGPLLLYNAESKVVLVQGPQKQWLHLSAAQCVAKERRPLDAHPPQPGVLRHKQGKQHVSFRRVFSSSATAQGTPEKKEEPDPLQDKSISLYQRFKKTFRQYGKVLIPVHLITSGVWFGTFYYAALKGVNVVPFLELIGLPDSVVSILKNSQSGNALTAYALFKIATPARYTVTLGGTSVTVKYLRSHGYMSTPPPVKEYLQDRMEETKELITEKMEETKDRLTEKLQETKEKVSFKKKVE
# UniProt Q8N8J7: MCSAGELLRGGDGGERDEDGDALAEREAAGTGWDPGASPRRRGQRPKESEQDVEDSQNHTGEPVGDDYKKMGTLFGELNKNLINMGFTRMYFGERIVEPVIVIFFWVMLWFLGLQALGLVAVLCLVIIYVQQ
# UniProt Q9NYF3: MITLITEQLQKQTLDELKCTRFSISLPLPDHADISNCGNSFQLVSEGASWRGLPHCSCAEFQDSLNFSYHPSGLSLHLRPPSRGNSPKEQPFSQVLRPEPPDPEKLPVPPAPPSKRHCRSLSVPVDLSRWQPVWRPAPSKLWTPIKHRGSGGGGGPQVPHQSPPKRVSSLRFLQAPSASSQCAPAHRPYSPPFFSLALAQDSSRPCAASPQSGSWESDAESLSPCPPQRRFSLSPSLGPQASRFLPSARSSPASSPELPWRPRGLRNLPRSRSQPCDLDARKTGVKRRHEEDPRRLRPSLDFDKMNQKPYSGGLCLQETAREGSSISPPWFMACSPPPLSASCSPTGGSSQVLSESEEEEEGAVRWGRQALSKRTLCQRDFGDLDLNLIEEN
# Legend:
# Test in all cases: log2 fold change, soluble protein after heating vs DMSO (PISA); higher = thermal stabilisation; K562 lysate, 10 uM; active = over 0.2 and 3.5 SD of the protein, either way, in both replicates (recomputed)
# [1] = compound: CN1CC[C@H](c2c(O)cc(O)c3c(=O)cc(-c4ccccc4Cl)oc23)[C@H](O)C1 [alvocidib]
# Summary of the method: (§1)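 K562 pellets were dounce-homogenised in PBS pH 7.4 containing 1 mM MgCl2, and the crude extract, at 1 mg/mL protein, was exposed to 10 μM compound for 30 min. Aliquots were heated for 3 min across 48°C-58°C, pooled, brought to 0.5% NP-40 at 4°C and spun at 21,000xg for 90 min, with the supernatant taken as soluble protein. TMTpro 16plex LC-MS/MS with equalised channel sums quantified that protein. Values are log-two fold changes in thermal stability relative to solvent controls, taken from duplicates.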
# [2] = compound: CN1CCc2c(c3ccccc3n2Cc2ccc(C(=O)NO)cc2)C1 [Tubastatin A]
# Summary of the method: as §1
# [3] = compound: CNC(=O)C1=CC=CC=C1NC2=NC(=NC=C2Cl)NC3=C(C=C(C=C3)N4CCOCC4)OC
# Summary of the method: as §1
# [4] = compound: CNc1nc(-c2ccc3c(N)n[nH]c3c2)cc(N2C[C@@H](C(=O)NC3CCCCC3)CC[C@H]2C)n1
# Summary of the method: as §1
# [5] = compound: COC(=O)N[C@@H](C)CNc1nccc(-c2cn(C(C)C)nc2-c2cc(Cl)cc(NS(C)(=O)=O)c2F)n1 [encorafenib]
# Summary of the method: as §1
# [6] = compound: COC(=O)[C@H](CCSC)NC(=O)C1=C(C=C(C=C1)NC[C@H](CS)N)C2=CC=CC=C2
# Summary of the method: as §1
# [7] = compound: COc1cc2nc(-c3cc(F)ccc3O)nc(N[C@@H]3CNC[C@H]3C(C)(C)O)c2cc1OC
# Summary of the method: as §1
# [8] = compound: CS(=O)(=O)CCNCc1ccc(-c2ccc3ncnc(Nc4ccc(OCc5cccc(F)c5)c(Cl)c4)c3c2)o1 [lapatinib]
# Summary of the method: as §1
# [9] = compound: C[C@@H](Oc1cc(-c2cnn(C3CCNCC3)c2)cnc1N)c1c(Cl)ccc(F)c1Cl [crizotinib]
# Summary of the method: as §1
# [10] = compound: C[C@H](C1=CC=C(C=C1)C(=O)NC2=C3C=CNC3=NC=C2)N
# Summary of the method: as §1
# [11] = compound: C[C@H](Nc1ncnc2nc[nH]c12)c1cc2cccc(Cl)c2c(=O)n1-c1ccccc1 [duvelisib]
# Summary of the method: as §1
# [12] = compound: Cc1cc(Nc2cc(CN3CCOCC3)c3nc(C)c(Cc4ccc(Cl)cc4F)n3n2)n[nH]1 [gandotinib]
# Summary of the method: as §1
# [13] = compound: Cc1cc(Nc2cc(N3CCN(C)CC3)nc(Sc3ccc(NC(=O)C4CC4)cc3)n2)n[nH]1 [tozasertib]
# Summary of the method: as §1
# [14] = compound: Cc1ccc(-n2nc(C(C)(C)C)cc2NC(=O)Nc2ccc(OCCN3CCOCC3)c3ccccc23)cc1 [doramapimod]
# Summary of the method: as §1
# [15] = compound: Cc1cccc(CC(=O)N2CCc3c2ccc(-c2cn(C)c4ncnc(N)c24)c3F)n1
# Summary of the method: as §1
# [16] = compound: CNC(=O)c1ccc(Nc2ncc(C(F)(F)F)c(NCc3nccnc3N(C)S(C)(=O)=O)n2)cc1 [defactinib]
# Summary of the method: as §1
# [17] = compound: COc1cc(Nc2ncc3c(n2)-c2ccc(Cl)cc2C(c2c(F)cccc2OC)=NC3)ccc1C(=O)O [alisertib]
# Summary of the method: as §1
# [18] = compound: COc1cc2ncnc(Nc3ccc(F)c(Cl)c3)c2cc1OCCCN1CCOCC1 [gefitinib]
# Summary of the method: as §1
# [19] = compound: CS(=O)(=O)N1CCN(Cc2cc3nc(-c4cccc5[nH]ncc45)nc(N4CCOCC4)c3s2)CC1 [pictilisib]
# Summary of the method: as §1
# [20] = compound: Cc1ccc(NC(=O)c2ccc(CN3CC[C@H](N(C)C)C3)c(C(F)(F)F)c2)cc1Nc1nccc(-c2cncnc2)n1 [bafetinib]
# Summary of the method: as §1
Target,log2 fold change [1],log2 fold change [2],log2 fold change [3],log2 fold change [4],log2 fold change [5],log2 fold change [6],log2 fold change [7],log2 fold change [8],log2 fold change [9],log2 fold change [10],log2 fold change [11],log2 fold change [12],log2 fold change [13],log2 fold change [14],log2 fold change [15],log2 fold change [16],log2 fold change [17],log2 fold change [18],log2 fold change [19],log2 fold change [20]
ESCO2 (UniProt Q56NI9),inactive: 0.125,inactive: -0.262,inactive: 0.019,inactive: 0.499,inactive: 0.105,inactive: -0.037,inactive: 0.023,inactive: -0.055,inactive: 0.022,inactive: 0.421,inactive: -0.029,inactive: -0.117,inactive: -0.04,inactive: 0.039,inactive: -0.299,,,,,
F2RL3 (UniProt Q96RI0),inactive: -0.008,inactive: 0.128,inactive: 0.104,inactive: 0.033,,,inactive: -0.013,inactive: -0.147,,inactive: -0.048,inactive: -0.059,inactive: -0.106,,,inactive: 0.155,inactive: -0.128,inactive: -0.014,inactive: 0.087,,
FAM177A1 isoform 2 (UniProt Q8N128),inactive: -0.057,inactive: -0.047,inactive: 0.007,inactive: -0.074,,,inactive: 0.028,inactive: -0.031,inactive: -0.022,inactive: 0.055,inactive: -0.011,inactive: -0.028,,inactive: -0.089,inactive: 0.114,inactive: 0.046,inactive: 0.018,inactive: -0.055,inactive: 0.018,inactive: -0.036
ETV6 (UniProt P41212),inactive: 0.013,inactive: 0.102,,inactive: 0.068,inactive: 0.021,inactive: -0.165,inactive: -0.037,inactive: 0.014,inactive: 0.084,inactive: -0.133,inactive: -0.209,inactive: -0.116,inactive: 0.054,inactive: -0.087,inactive: -0.011,inactive: 0.076,inactive: -0.03,inactive: 0.216,,
EXOSC3 (UniProt Q9NQT5),inactive: -0.036,inactive: -0.025,inactive: 0.018,inactive: 0.058,inactive: 0.015,inactive: 0.042,inactive: 0.039,inactive: -0.051,inactive: -0.052,inactive: -0.063,inactive: 0.033,inactive: 0.044,inactive: -0.005,inactive: 0.031,inactive: 0.058,inactive: 0.073,inactive: 0.035,inactive: -0.012,inactive: -0.028,inactive: -0.14
FAM114A1 (UniProt Q8IWE2),inactive: -0.046,inactive: -0.132,inactive: -0.111,inactive: 0.182,inactive: 0.096,inactive: -0.019,inactive: 0.017,inactive: 0.049,,inactive: -0.065,inactive: -0.096,inactive: 0.252,inactive: -0.039,,inactive: 0.057,inactive: -0.017,,,inactive: -0.13,inactive: -0.038
ETV4 (UniProt P43268),inactive: 0.092,inactive: -0.022,inactive: -0.099,,inactive: 0.102,inactive: -0.145,,,inactive: 0.068,inactive: -0.008,,inactive: -0.151,inactive: -0.137,inactive: 0.029,inactive: -0.011,inactive: 0.011,inactive: -0.06,inactive: -0.055,,
FAH (UniProt P16930),inactive: -0.052,inactive: 0.038,inactive: 0.008,inactive: 0.043,inactive: -0.007,inactive: -0.043,inactive: -0.009,inactive: -0.009,inactive: 0.021,inactive: -0.14,inactive: -0.011,inactive: 0.136,inactive: -0.031,inactive: -0.034,inactive: 0.089,inactive: 0.039,inactive: -0.01,inactive: 0.003,inactive: -0.025,inactive: 0.165
FAM76B (UniProt Q5HYJ3),inactive: -0.019,inactive: 0.012,inactive: 0.068,inactive: -0.002,inactive: 0.013,inactive: -0.146,inactive: 0.016,inactive: -0.049,inactive: 0.028,inactive: -0.19,inactive: -0.02,inactive: 0.023,inactive: -0.021,inactive: -0.016,active: 0.269,inactive: 0.076,inactive: -0.02,inactive: -0.018,,
FAM53B (UniProt Q14153),inactive: -0.125,active: 0.473,inactive: 0.098,inactive: -0.064,inactive: 0.019,inactive: -0.1,,,inactive: -0.03,inactive: -0.032,inactive: 0.079,inactive: 0.037,inactive: 0.024,inactive: 0.169,inactive: 0.083,inactive: 0.025,inactive: -0.04,inactive: -0.075,inactive: 0.02,inactive: -0.023
FAM117B (UniProt Q6P1L5),inactive: -0.073,inactive: -0.202,inactive: -0.022,inactive: 0.029,,,inactive: 0.012,inactive: -0.021,inactive: -0.039,inactive: 0.001,inactive: 0.143,inactive: 0.209,,inactive: -0.024,inactive: 0.147,inactive: 0.023,inactive: -0.049,inactive: -0.012,,
FAM122B isoform 3 (UniProt Q7Z309),inactive: -0.163,inactive: -0.009,inactive: 0.11,inactive: -0.047,inactive: 0.213,inactive: 0,inactive: 0.076,inactive: 0.06,inactive: -0.011,inactive: -0.085,inactive: -0.396,inactive: 0.233,inactive: -0.067,inactive: -0.019,inactive: -0.329,inactive: -0.169,,,inactive: -0.036,inactive: 0.035
FAM126B (UniProt Q8IXS8),inactive: -0.077,inactive: -0.06,inactive: 0.079,inactive: -0.158,inactive: -0.077,inactive: -0.152,inactive: 0.091,inactive: 0.047,,inactive: -0.081,inactive: 0.052,inactive: 0.011,inactive: 0.091,,inactive: 0.096,inactive: 0.1,,,inactive: -0.008,inactive: 0.038
EXOC8 (UniProt Q8IYI6),inactive: 0.025,inactive: -0.031,inactive: 0.023,inactive: -0.001,inactive: 0.003,inactive: 0.007,inactive: 0,inactive: -0.006,inactive: -0.047,inactive: -0.008,inactive: -0.039,inactive: -0.134,inactive: -0.041,inactive: 0.002,inactive: -0.008,inactive: 0.002,inactive: -0.023,inactive: -0.025,inactive: -0.034,inactive: -0.056
FAM210A (UniProt Q96ND0),inactive: 0.022,inactive: 0.01,inactive: 0.03,inactive: 0.043,inactive: -0.043,inactive: 0.007,inactive: 0.011,inactive: -0.017,inactive: -0.044,inactive: -0.022,inactive: -0.021,inactive: 0.02,inactive: -0.049,inactive: -0.003,inactive: -0.064,inactive: 0.018,inactive: 0.01,inactive: -0.016,inactive: 0.002,inactive: 0.014
FAM135A (UniProt Q9P2D6),inactive: -0.154,inactive: -0.177,,inactive: -0.037,,,,,inactive: -0.13,inactive: 0.01,inactive: 0.06,inactive: 0.069,,inactive: -0.036,inactive: 0.071,,inactive: -0.231,inactive: 0.096,inactive: -0.031,inactive: -0.248
FAM241A (UniProt Q8N8J7),inactive: -0.093,inactive: -0.033,inactive: 0.091,inactive: -0.088,inactive: 0.056,inactive: -0.097,inactive: -0.059,inactive: 0.112,inactive: 0.013,inactive: -0.083,inactive: 0.011,inactive: -0.054,inactive: 0.059,inactive: 0.082,inactive: 0.223,inactive: 0.065,,,inactive: 0.127,inactive: -0.027
FAM53C (UniProt Q9NYF3),inactive: 0.001,inactive: -0.085,inactive: 0.095,inactive: -0.078,inactive: -0.035,inactive: -0.032,inactive: -0.034,inactive: -0.101,inactive: 0.02,inactive: 0.08,inactive: -0.044,inactive: 0.075,inactive: 0.029,inactive: 0.05,inactive: 0.052,,inactive: 0.019,inactive: 0.204,inactive: 0.056,inactive: -0.101

# Two entries picked at random from the list so far, as already listed:
Target,log2 fold change [1],log2 fold change [2],log2 fold change [3],log2 fold change [4],log2 fold change [5],log2 fold change [6],log2 fold change [7],log2 fold change [8],log2 fold change [9],log2 fold change [10],log2 fold change [11],log2 fold change [12],log2 fold change [13],log2 fold change [14],log2 fold change [15],log2 fold change [16],log2 fold change [17],log2 fold change [18],log2 fold change [19],log2 fold change [20]
FAM76B (UniProt Q5HYJ3),inactive: -0.019,inactive: 0.012,inactive: 0.068,inactive: -0.002,inactive: 0.013,inactive: -0.146,inactive: 0.016,inactive: -0.049,inactive: 0.028,inactive: -0.19,inactive: -0.02,inactive: 0.023,inactive: -0.021,inactive: -0.016,active: 0.269,inactive: 0.076,inactive: -0.02,inactive: -0.018,,
F2RL3 (UniProt Q96RI0),inactive: -0.008,inactive: 0.128,inactive: 0.104,inactive: 0.033,,,inactive: -0.013,inactive: -0.147,,inactive: -0.048,inactive: -0.059,inactive: -0.106,,,inactive: 0.155,inactive: -0.128,inactive: -0.014,inactive: 0.087,,
